From patent US5023322A, “Analogs of growth hormone releasing factor (GRF) and a method for the preparation thereof” (MTA Kutatas-es Szervezetelemzo Intezete, priority 1988, dated 1991)
Not every detail of the peptide structures is certain; ends, links or a residue may be inferred. Non-standard residues stand in square brackets, D forms with d. Residues, ends and D or L forms follow the SMILES beside them. Nle = CCCC[C@H](N)C(=O)O; GABA = NCCCC(=O)O

How the values were obtained:
Format in all cases: in vivo, Wistar Amsterdam rats
growth hormone release [1] = assay: plasma GH level in anaesthetized rats after intravenous administration; settings: i.v.
Experimental: (§1) The biological effects of the compounds according to the invention were tested under in vitro and in vivo conditions. In both instances the growth hormone release was measured as a function of the concentration of the compound administered. The amount of growth hormone released was detected by radioimmune assay with a reliability limit of 95%. The results obtained were compared to those obtained when administering native hpGRF or hGRF(1-29)--NH2, respectively.
(§2) Mature male Wistar Amsterdam rats, weighing 250-300 g, were anaesthetized intraperitoneally with 60 mg/kg of pentobarbital. The peptides to be tested were dissolved in 0.9% by weight aqueous saline solution, and were administered to the animals 20 minutes after anaesthesy as an intravenous (i.v.), intramuscular (i.m.) or subcutaneous (s.c.) injection. Blood samples were taken from the jugular vein of the animals prior to the administration of the active agent (-1 minute) and 5, 15 and 30 minutes after challenge. The amount of growth hormone released was measured by radioimmune assay.
Therefore, when the compounds were administered intravenously, the percentage increase in activity was calculated by relating the amount of growth hormone released upon administering a compound of the invention to the amount of growth hormone released upon administering hGRF(1-29)--NH2.

growth hormone release [2] = assay: plasma GH level in anaesthetized rats after subcutaneous administration; settings: s.c.
Experimental: as §1, §2
(§3) Therefore, in these tests the activity of the compounds according to the invention was characterized by the percentage increase in the plasma growth hormone level related to that originally present in the plasma (basal value).

growth hormone release [3] = assay: plasma GH level in anaesthetized rats after intramuscular administration; settings: i.m.
Experimental: as §1, §2, §3

[4] = "A" 5 μg/kg, -1 min (basal value)
[5] = "A" 2 μg/kg, -1 min (basal value)
[6] = "B" 5 μg/kg, -1 min (basal value)

CCCC[C@H](NC(=O)[C@@H](NC(=O)[C@H](CC(=O)O)NC(=O)[C@H](CCC(N)=O)NC(=O)[C@H](CC(C)C)NC(=O)[C@H](CC(C)C)NC(=O)[C@H](CCCCN)NC(=O)[C@H](CCCNC(=N)N)NC(=O)[C@H](C)NC(=O)[C@H](CO)NC(=O)[C@H](CC(C)C)NC(=O)[C@H](CCC(N)=O)NC(=O)CNC(=O)[C@H](CC(C)C)NC(=O)[C@@H](NC(=O)[C@H](CCCCN)NC(=O)[C@H](CCCNC(=N)N)NC(=O)[C@H](Cc1ccc(O)cc1)NC(=O)[C@H](CO)NC(=O)[C@H](CC(N)=O)NC(=O)[C@@H](NC(=O)[C@H](Cc1ccccc1)NC(=O)[C@@H](NC(=O)[C@H](C)NC(=O)[C@H](CC(=O)O)NC(=O)[C@@H](C)NC(=O)[C@@H](N)Cc1ccc(O)cc1)[C@@H](C)CC)[C@@H](C)O)C(C)C)[C@@H](C)CC)C(=O)N[C@@H](CO)C(=O)N[C@@H](CCCNC(=N)N)C(=O)NCCCC(N)=O [Compound 1, D-Ala^2,Nle^27,Gaba^30 --hGRF(1-30)--NH2] (H-Y[dA]DAIFTNSYRKVLGQLSARKLLQDI[Nle]SR[GABA]-NH2)
Increase % (GH released related to that with hGRF(1-29)--NH2) (growth hormone release [1]; 0.8 μg/kg, +5 min): 172%
Plasma GH level (growth hormone release [1]; 0.8 μg/kg, +5 min): 535.54 ng/mL
Increase % (GH released related to that with hGRF(1-29)--NH2) (growth hormone release [1]; 0.8 μg/kg, +15 min): 257%
Plasma GH level (growth hormone release [1]; 0.8 μg/kg, +15 min): 240.73 ng/mL
Increase % (GH released related to that with hGRF(1-29)--NH2) (growth hormone release [1]; 0.8 μg/kg, +30 min): 140%
Plasma GH level (growth hormone release [1]; 0.8 μg/kg, +30 min): 74.27 ng/mL
Plasma GH level (growth hormone release [1]; 0.8 μg/kg, -1 min (before administration)): 71.64 ng/mL
Increase % (GH released related to that with hGRF(1-29)--NH2) (growth hormone release [1]; 2 μg/kg, +5 min): 170%
Plasma GH level (growth hormone release [1]; 2 μg/kg, +5 min): 1801.43 ng/mL
Increase % (GH released related to that with hGRF(1-29)--NH2) (growth hormone release [1]; 2 μg/kg, +15 min): 299%
Plasma GH level (growth hormone release [1]; 2 μg/kg, +15 min): 1177.00 ng/mL
Increase % (GH released related to that with hGRF(1-29)--NH2) (growth hormone release [1]; 2 μg/kg, +30 min): 268%
Plasma GH level (growth hormone release [1]; 2 μg/kg, +30 min): 293.00 ng/mL
Plasma GH level (growth hormone release [1]; 2 μg/kg, -1 min (before administration)): 124.29 ng/mL
Plasma GH level (growth hormone release [2]; "A" 5 μg/kg, +5 min): 285.00 ng/mL
percentage increase related to the basal value (GH level measured in the -1 minute) (growth hormone release [2]; "A" 5 μg/kg, +5 min): 419%
Plasma GH level (growth hormone release [2]; "A" 5 μg/kg, +15 min): 376.67 ng/mL
percentage increase related to the basal value (GH level measured in the -1 minute) (growth hormone release [2]; "A" 5 μg/kg, +15 min): 552%
Plasma GH level (growth hormone release [2]; "A" 5 μg/kg, +30 min): 145.67 ng/mL
percentage increase related to the basal value (GH level measured in the -1 minute) (growth hormone release [2]; "A" 5 μg/kg, +30 min): 213%
Plasma GH level (growth hormone release [2]; [4]): 68.17 ng/mL
Plasma GH level (growth hormone release [2]; "B" 12.5 μg/kg, +5 min): 410.67 ng/mL
percentage increase related to the basal value (GH level measured in the -1 minute) (growth hormone release [2]; "B" 12.5 μg/kg, +5 min): 455%
Plasma GH level (growth hormone release [2]; "B" 12.5 μg/kg, +15 min): 429.22 ng/mL
percentage increase related to the basal value (GH level measured in the -1 minute) (growth hormone release [2]; "B" 12.5 μg/kg, +15 min): 476%
Plasma GH level (growth hormone release [2]; "B" 12.5 μg/kg, +30 min): 137.78 ng/mL
percentage increase related to the basal value (GH level measured in the -1 minute) (growth hormone release [2]; "B" 12.5 μg/kg, +30 min): 152%
Plasma GH level (growth hormone release [2]; "B" 12.5 μg/kg, -1 min (basal value)): 89.67 ng/mL
Plasma GH level (growth hormone release [3]; "A" 2 μg/kg, +5 min): 119.40 ng/mL
percentage increase related to the basal value (GH level measured in the -1 minute) (growth hormone release [3]; "A" 2 μg/kg, +5 min): 238%
Plasma GH level (growth hormone release [3]; "A" 2 μg/kg, +15 min): 120.00 ng/mL
percentage increase related to the basal value (GH level measured in the -1 minute) (growth hormone release [3]; "A" 2 μg/kg, +15 min): 238%
Plasma GH level (growth hormone release [3]; "A" 2 μg/kg, +30 min): 56.00 ng/mL
percentage increase related to the basal value (GH level measured in the -1 minute) (growth hormone release [3]; "A" 2 μg/kg, +30 min): 110%
Plasma GH level (growth hormone release [3]; [5]): 49.60 ng/mL
Plasma GH level (growth hormone release [3]; "B" 5 μg/kg, +5 min): 242.20 ng/mL
percentage increase related to the basal value (GH level measured in the -1 minute) (growth hormone release [3]; "B" 5 μg/kg, +5 min): 493%
Plasma GH level (growth hormone release [3]; "B" 5 μg/kg, +15 min): 351.00 ng/mL
percentage increase related to the basal value (GH level measured in the -1 minute) (growth hormone release [3]; "B" 5 μg/kg, +15 min): 716%
Plasma GH level (growth hormone release [3]; "B" 5 μg/kg, +30 min): 149.40 ng/mL
percentage increase related to the basal value (GH level measured in the -1 minute) (growth hormone release [3]; "B" 5 μg/kg, +30 min): 304%
Plasma GH level (growth hormone release [3]; [6]): 48.80 ng/mL

CCCC[C@H](NC(=O)[C@@H](NC(=O)[C@H](CC(=O)O)NC(=O)[C@H](CCC(N)=O)NC(=O)[C@H](CC(C)C)NC(=O)[C@H](CC(C)C)NC(=O)[C@H](CCCCN)NC(=O)[C@H](CCCNC(=N)N)NC(=O)[C@H](C)NC(=O)[C@H](CO)NC(=O)[C@H](CC(C)C)NC(=O)[C@H](CCC(N)=O)NC(=O)[C@H](CC(C)C)NC(=O)[C@H](CC(C)C)NC(=O)[C@@H](NC(=O)[C@H](CCCCN)NC(=O)[C@@H](CCCNC(=N)N)NC(=O)[C@H](Cc1ccc(O)cc1)NC(=O)[C@H](CO)NC(=O)[C@H](CC(N)=O)NC(=O)[C@@H](NC(=O)[C@H](Cc1ccccc1)NC(=O)[C@@H](NC(=O)[C@H](C)NC(=O)[C@H](CC(=O)O)NC(=O)[C@@H](C)NC(=O)[C@@H](N)Cc1ccc(O)cc1)[C@@H](C)CC)[C@@H](C)O)C(C)C)[C@@H](C)CC)C(=O)N[C@@H](CO)C(=O)N[C@@H](CCCNC(=N)N)C(=O)NCCCC(N)=O [Compound 3, D-Ala^2,D-Arg^11,Leu^15,Nle^27,Gaba^30 --hGRF(1-30)--NH2] (H-Y[dA]DAIFTNSY[dR]KVLLQLSARKLLQDI[Nle]SR[GABA]-NH2)
Plasma GH level (growth hormone release [2]; "A" 5 μg/kg, +5 min): 237.50 ng/mL
percentage increase related to the basal value (GH level measured in the -1 minute) (growth hormone release [2]; "A" 5 μg/kg, +5 min): 374%
Plasma GH level (growth hormone release [2]; "A" 5 μg/kg, +15 min): 193.17 ng/mL
percentage increase related to the basal value (GH level measured in the -1 minute) (growth hormone release [2]; "A" 5 μg/kg, +15 min): 305%
Plasma GH level (growth hormone release [2]; "A" 5 μg/kg, +30 min): 83.83 ng/mL
percentage increase related to the basal value (GH level measured in the -1 minute) (growth hormone release [2]; "A" 5 μg/kg, +30 min): 132%
Plasma GH level (growth hormone release [2]; [4]): 63.33 ng/mL
Plasma GH level (growth hormone release [3]; "A" 2 μg/kg, +5 min): 108.50 ng/mL
percentage increase related to the basal value (GH level measured in the -1 minute) (growth hormone release [3]; "A" 2 μg/kg, +5 min): 209%
Plasma GH level (growth hormone release [3]; "A" 2 μg/kg, +15 min): 98.67 ng/mL
percentage increase related to the basal value (GH level measured in the -1 minute) (growth hormone release [3]; "A" 2 μg/kg, +15 min): 189%
Plasma GH level (growth hormone release [3]; "A" 2 μg/kg, +30 min): 54.50 ng/mL
percentage increase related to the basal value (GH level measured in the -1 minute) (growth hormone release [3]; "A" 2 μg/kg, +30 min): 105%
Plasma GH level (growth hormone release [3]; [5]): 51.80 ng/mL
Plasma GH level (growth hormone release [3]; "B" 5 μg/kg, +5 min): 247.00 ng/mL
percentage increase related to the basal value (GH level measured in the -1 minute) (growth hormone release [3]; "B" 5 μg/kg, +5 min): 568%
Plasma GH level (growth hormone release [3]; "B" 5 μg/kg, +15 min): 213.75 ng/mL
percentage increase related to the basal value (GH level measured in the -1 minute) (growth hormone release [3]; "B" 5 μg/kg, +15 min): 489%
Plasma GH level (growth hormone release [3]; "B" 5 μg/kg, +30 min): 110.66 ng/mL
percentage increase related to the basal value (GH level measured in the -1 minute) (growth hormone release [3]; "B" 5 μg/kg, +30 min): 254%
Plasma GH level (growth hormone release [3]; [6]): 43.50 ng/mL
